Measured values as given in US9974869B2, “Chelated PSMA inhibitors” (Cancer Targeted Technology LLC, priority 2011, dated 2018).
For at least one compound, name, drawing or mass did not settle the structure.

Sequences of proteins named here, by UniProt entry; tags and fusion partners are left off.
UniProt Q04609, whole entry: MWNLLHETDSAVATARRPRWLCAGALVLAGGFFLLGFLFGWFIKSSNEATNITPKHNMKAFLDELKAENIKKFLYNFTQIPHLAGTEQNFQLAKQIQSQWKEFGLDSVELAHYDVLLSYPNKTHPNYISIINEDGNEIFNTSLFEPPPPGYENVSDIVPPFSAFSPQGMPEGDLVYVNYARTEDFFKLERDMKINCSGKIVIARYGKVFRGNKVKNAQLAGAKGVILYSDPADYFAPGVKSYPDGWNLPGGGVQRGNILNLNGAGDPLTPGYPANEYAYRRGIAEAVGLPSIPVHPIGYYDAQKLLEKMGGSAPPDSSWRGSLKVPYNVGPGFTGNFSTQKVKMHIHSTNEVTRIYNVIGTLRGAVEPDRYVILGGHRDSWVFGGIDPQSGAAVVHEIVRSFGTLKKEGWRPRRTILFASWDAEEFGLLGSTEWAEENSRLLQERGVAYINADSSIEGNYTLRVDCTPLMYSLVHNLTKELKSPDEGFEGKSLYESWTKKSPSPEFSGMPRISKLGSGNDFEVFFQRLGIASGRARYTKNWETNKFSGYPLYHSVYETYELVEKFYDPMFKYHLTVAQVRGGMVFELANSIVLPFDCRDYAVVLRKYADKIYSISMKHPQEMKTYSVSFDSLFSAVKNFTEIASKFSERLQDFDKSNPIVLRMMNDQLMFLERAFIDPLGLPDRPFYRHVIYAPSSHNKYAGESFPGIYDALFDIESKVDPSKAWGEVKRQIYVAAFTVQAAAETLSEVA

What was measured:
PSMA = PSMA (Homo sapiens, UniProt Q04609); assay: PSMA inhibition (IC50, mode of inhibition); assay type: biochemical
[1] = pH stability at room temperature monitored by 31P NMR; assay type: physicochemical; details: 1 M buffers, about 5 mM, 31P NMR each hour 0-8 h

Row | SMILES | mode of inhibition (binding to PSMA) (PSMA) | pH at which stable for 8 hours with no detectable hydrolysis [1]
1 | N[C@@H](CCC(=O)N[C@@H](CCOP(=O)(O)N[C@@H](CCC(=O)O)C(=O)O)C(=O)O)C(=O)O [CTT1000] | irreversible | ≥ 4.5
2 | NC(CCC(=O)NC(CCCOP(=O)(O)NC(CCC(=O)O)C(=O)O)C(=O)O)C(=O)O (stereo not shown) [CTT2000] | irreversible | ≥ 3
